{"sequences": {"note": "Protein sequences, listed by entry. Tags and fused reporters are not part of them. Lines headed by an entry give the natural chain unless they say otherwise; changes in a name come on top.", "UniProt P60033": "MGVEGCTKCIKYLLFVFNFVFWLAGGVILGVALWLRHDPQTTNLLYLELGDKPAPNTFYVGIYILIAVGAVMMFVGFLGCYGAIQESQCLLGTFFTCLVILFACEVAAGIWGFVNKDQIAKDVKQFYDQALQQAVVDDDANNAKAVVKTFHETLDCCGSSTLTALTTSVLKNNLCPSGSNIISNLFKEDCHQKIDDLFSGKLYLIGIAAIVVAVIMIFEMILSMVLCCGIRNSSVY", "UniProt P57772": "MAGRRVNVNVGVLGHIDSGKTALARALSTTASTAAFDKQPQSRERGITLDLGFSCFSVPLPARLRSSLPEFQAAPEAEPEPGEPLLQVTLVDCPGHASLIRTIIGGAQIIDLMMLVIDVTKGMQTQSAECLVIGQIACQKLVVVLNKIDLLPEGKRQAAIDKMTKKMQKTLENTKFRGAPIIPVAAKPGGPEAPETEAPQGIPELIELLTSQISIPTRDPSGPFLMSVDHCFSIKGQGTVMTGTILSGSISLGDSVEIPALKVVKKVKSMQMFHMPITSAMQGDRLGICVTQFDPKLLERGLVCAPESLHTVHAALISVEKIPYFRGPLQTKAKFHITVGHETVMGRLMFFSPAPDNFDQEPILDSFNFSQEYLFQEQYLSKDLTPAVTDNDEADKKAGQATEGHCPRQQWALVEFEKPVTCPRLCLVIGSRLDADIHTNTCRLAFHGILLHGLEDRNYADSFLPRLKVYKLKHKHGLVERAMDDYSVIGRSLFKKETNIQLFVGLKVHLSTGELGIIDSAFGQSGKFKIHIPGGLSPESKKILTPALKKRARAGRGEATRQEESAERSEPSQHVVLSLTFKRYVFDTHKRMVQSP", "UniProt P51948": "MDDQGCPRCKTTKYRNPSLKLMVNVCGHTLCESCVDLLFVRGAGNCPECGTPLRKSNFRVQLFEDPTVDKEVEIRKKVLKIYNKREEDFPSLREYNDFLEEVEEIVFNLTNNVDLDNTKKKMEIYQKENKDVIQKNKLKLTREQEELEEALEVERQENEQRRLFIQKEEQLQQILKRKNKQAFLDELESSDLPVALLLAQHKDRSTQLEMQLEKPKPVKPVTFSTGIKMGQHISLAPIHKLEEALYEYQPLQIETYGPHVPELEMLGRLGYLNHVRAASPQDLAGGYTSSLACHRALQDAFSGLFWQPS", "UniProt P82970": "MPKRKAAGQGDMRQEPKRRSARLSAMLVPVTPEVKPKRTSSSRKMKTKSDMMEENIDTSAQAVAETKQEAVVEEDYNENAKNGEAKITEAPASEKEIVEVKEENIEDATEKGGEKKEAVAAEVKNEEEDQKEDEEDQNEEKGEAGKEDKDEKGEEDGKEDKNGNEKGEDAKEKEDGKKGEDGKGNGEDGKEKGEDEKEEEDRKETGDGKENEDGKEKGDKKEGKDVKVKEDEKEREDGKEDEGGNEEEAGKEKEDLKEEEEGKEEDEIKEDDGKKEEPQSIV"}, "source": "the supplement of paper PMC6411743", "compound": "Nc1nc2c(ncn2[C@@H]2O[C@H](COP(=O)(O)OP(=O)(O)OP(=O)(O)O)[C@@H](O)[C@H]2O)c(=O)[nH]1 [guanosine triphosphate]", "assay": "NP40-soluble protein abundance relative to vehicle (solubility fold change) (ratio); higher = more soluble protein in presence of GTP", "description": "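Solubility proteome profiling in Jurkat crude lysate. Lysate was treated with Mg-GTP (0.1-10 mM) for 10 min at room temperature and 3 min at 37 °C, then solubilised with 0.8% NP40 and benzonase, followed by ultracentrifugation. Proteins were quantified by TMT10 LC-MS/MS; the value is the NP40-soluble abundance relative to the NP40-processed vehicle, from 3 independent experiments.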", "note": "± gives the standard deviation of the averaged measurements. This is one part of the list."}
{"target": "CD81 (UniProt P60033)", "values": [{"measurement": "NP40-soluble protein abundance", "setting": "concentration: 0.1mM", "result": "0.95 ± 0.038"}, {"measurement": "NP40-soluble protein abundance", "setting": "concentration: 0.5mM", "result": "0.908 ± 0.066"}, {"measurement": "NP40-soluble protein abundance", "setting": "concentration: 1mM", "result": "0.913 ± 0.018"}, {"measurement": "NP40-soluble protein abundance", "setting": "concentration: 2mM", "result": "0.925 ± 0.092"}, {"measurement": "NP40-soluble protein abundance", "setting": "concentration: 4mM", "result": "0.901 ± 0.038"}, {"measurement": "NP40-soluble protein abundance", "setting": "concentration: 6mM", "result": "0.886 ± 0.044"}, {"measurement": "NP40-soluble protein abundance", "setting": "concentration: 8mM", "result": "0.872 ± 0.11"}, {"measurement": "NP40-soluble protein abundance", "setting": "concentration: 10mM", "result": "0.863 ± 0.082"}]}
{"target": "UniProt P57772 and related entries", "values": [{"measurement": "NP40-soluble protein abundance", "setting": "concentration: 0.1mM", "result": "1.06 ± 0.046"}, {"measurement": "NP40-soluble protein abundance", "setting": "concentration: 0.5mM", "result": "1.09 ± 0.07"}, {"measurement": "NP40-soluble protein abundance", "setting": "concentration: 1mM", "result": "1.01 ± 0.042"}, {"measurement": "NP40-soluble protein abundance", "setting": "concentration: 2mM", "result": "1.03 ± 0.049"}, {"measurement": "NP40-soluble protein abundance", "setting": "concentration: 4mM", "result": "1.05 ± 0.075"}, {"measurement": "NP40-soluble protein abundance", "setting": "concentration: 6mM", "result": "1.03 ± 0.054"}, {"measurement": "NP40-soluble protein abundance", "setting": "concentration: 8mM", "result": "1.05 ± 0.052"}, {"measurement": "NP40-soluble protein abundance", "setting": "concentration: 10mM", "result": "1.04 ± 0.032"}]}
{"target": "UniProt P63244 and related entries", "values": [{"measurement": "NP40-soluble protein abundance", "setting": "concentration: 0.1mM", "result": "0.997 ± 0.049"}, {"measurement": "NP40-soluble protein abundance", "setting": "concentration: 0.5mM", "result": "1.04 ± 0.13"}, {"measurement": "NP40-soluble protein abundance", "setting": "concentration: 1mM", "result": "0.936 ± 0.15"}, {"measurement": "NP40-soluble protein abundance", "setting": "concentration: 2mM", "result": "0.922 ± 0.18"}, {"measurement": "NP40-soluble protein abundance", "setting": "concentration: 4mM", "result": "0.823 ± 0.17"}, {"measurement": "NP40-soluble protein abundance", "setting": "concentration: 6mM", "result": "0.798 ± 0.17"}, {"measurement": "NP40-soluble protein abundance", "setting": "concentration: 8mM", "result": "0.708 ± 0.096"}, {"measurement": "NP40-soluble protein abundance", "setting": "concentration: 10mM", "result": "0.737 ± 0.14"}]}
{"target": "UniProt P51948 and related entries", "values": [{"measurement": "NP40-soluble protein abundance", "setting": "concentration: 0.1mM", "result": "1 ± 0.066"}, {"measurement": "NP40-soluble protein abundance", "setting": "concentration: 0.5mM", "result": "1.02 ± 0.035"}, {"measurement": "NP40-soluble protein abundance", "setting": "concentration: 1mM", "result": "1.04 ± 0.021"}, {"measurement": "NP40-soluble protein abundance", "setting": "concentration: 2mM", "result": "1.04 ± 0.043"}, {"measurement": "NP40-soluble protein abundance", "setting": "concentration: 4mM", "result": "1.03 ± 0.024"}, {"measurement": "NP40-soluble protein abundance", "setting": "concentration: 6mM", "result": "1.07 ± 0.065"}, {"measurement": "NP40-soluble protein abundance", "setting": "concentration: 8mM", "result": "1.01 ± 0.022"}, {"measurement": "NP40-soluble protein abundance", "setting": "concentration: 10mM", "result": "1.03 ± 0.062"}]}
{"target": "UniProt P82970 and related entries", "values": [{"measurement": "NP40-soluble protein abundance", "setting": "concentration: 0.1mM", "result": "0.887 ± 0.039"}, {"measurement": "NP40-soluble protein abundance", "setting": "concentration: 0.5mM", "result": "0.891 ± 0.013"}, {"measurement": "NP40-soluble protein abundance", "setting": "concentration: 1mM", "result": "0.98 ± 0.08"}, {"measurement": "NP40-soluble protein abundance", "setting": "concentration: 2mM", "result": "0.908 ± 0.018"}, {"measurement": "NP40-soluble protein abundance", "setting": "concentration: 4mM", "result": "0.879 ± 0.012"}, {"measurement": "NP40-soluble protein abundance", "setting": "concentration: 6mM", "result": "0.927 ± 0.059"}, {"measurement": "NP40-soluble protein abundance", "setting": "concentration: 8mM", "result": "1.01 ± 0.089"}, {"measurement": "NP40-soluble protein abundance", "setting": "concentration: 10mM", "result": "1.03 ± 0.12"}]}
